Assay results reported in article PMC9997660.
No constants are given. Whether binding was seen depends on the method and setting. Binding seen in cells or lysates may run through a third protein. Some results given as binding are weak or reduced against the parent protein; the word gives no strength. Where a sequence is shown, tags or fusion partners need not be part of it. One block for each binder: values may come before it.

How the values were obtained:
3Flag-PIGQ (human) = target: T1, 3Flag-PIGQ (human) (UniProt Q9BRB3); test: co-IP; lysates of PIGS-HRD1-CD55-TKO transfectants immunoprecipitated with anti-Flag beads; WB with Flag, Myc (and HA) antibodies; without and with overexpressed CD55
T1 sequence: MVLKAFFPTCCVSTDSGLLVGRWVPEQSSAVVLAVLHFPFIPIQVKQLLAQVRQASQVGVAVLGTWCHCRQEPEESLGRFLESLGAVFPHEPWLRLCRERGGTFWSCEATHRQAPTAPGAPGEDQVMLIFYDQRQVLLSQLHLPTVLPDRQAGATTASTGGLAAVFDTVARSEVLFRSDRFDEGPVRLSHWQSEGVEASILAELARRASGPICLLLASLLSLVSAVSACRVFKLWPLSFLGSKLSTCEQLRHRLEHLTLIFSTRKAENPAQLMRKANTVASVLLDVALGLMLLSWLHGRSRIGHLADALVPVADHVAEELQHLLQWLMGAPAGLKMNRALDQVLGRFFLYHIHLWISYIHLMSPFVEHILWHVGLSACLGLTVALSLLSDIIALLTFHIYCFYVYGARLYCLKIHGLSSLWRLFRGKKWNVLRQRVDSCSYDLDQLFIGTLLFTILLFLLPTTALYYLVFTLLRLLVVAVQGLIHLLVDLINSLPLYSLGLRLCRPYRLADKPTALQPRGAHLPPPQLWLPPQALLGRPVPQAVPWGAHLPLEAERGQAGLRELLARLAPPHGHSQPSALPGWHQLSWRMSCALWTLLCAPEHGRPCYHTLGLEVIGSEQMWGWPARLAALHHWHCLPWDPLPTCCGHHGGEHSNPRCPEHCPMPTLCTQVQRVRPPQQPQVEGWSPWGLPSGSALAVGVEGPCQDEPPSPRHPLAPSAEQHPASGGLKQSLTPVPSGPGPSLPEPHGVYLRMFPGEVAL

[1] = target: T2, PIGQ-NTC: PIGQ fused with the N-fragment of Citrine (human) (UniProt Q9BRB3); test: split reporter; split mCitrine (BiFC); constructs co-expressed with RFP-KDEL in PIGS-HRD1-CD55-TKO cells, cultured 2 d, fixed, confocal microscopy
T2 sequence: T1 sequence

binding (3Flag-PIGQ (human)): binds
B1: N6myc-ARV1 (protein, UniProt Q9H2C2 1-271)
chain: MGNGGRSGLQQGKGNVDGVAATPTAASASCQYRCIECNQEAKELYRDYNHGVLKITICKSCQKPVDKYIEYDPVIILINAILCKAQAYRHILFNTQINIHGKLCIFCLLCEAYLRWWQLQDSNQNTAPDDLIRYAKEWDFYRMFAIAALEQTAYFIGIFTFLWVERPMTAKKKPNFILLLKALLLSSYGKLLLIPAVIWEHDYTSVCLKLIKVFVLTSNFQAIRVTLNINRKLSFLAVLSGLLLESIMVYFFQSMEWDVGSDYAIFKSQDF

binding [1]: binds
B2: CTC-ARV1: C-terminal subdomain of mCitrine fused to the N-terminus of ARV1 (protein, UniProt Q9H2C2 1-271)
chain: B1 chain
